This is an account of results in publication PMC12019163.

The chains behind the UniProt entries cited, without tags or fusion partners.
UniProt Q96B97: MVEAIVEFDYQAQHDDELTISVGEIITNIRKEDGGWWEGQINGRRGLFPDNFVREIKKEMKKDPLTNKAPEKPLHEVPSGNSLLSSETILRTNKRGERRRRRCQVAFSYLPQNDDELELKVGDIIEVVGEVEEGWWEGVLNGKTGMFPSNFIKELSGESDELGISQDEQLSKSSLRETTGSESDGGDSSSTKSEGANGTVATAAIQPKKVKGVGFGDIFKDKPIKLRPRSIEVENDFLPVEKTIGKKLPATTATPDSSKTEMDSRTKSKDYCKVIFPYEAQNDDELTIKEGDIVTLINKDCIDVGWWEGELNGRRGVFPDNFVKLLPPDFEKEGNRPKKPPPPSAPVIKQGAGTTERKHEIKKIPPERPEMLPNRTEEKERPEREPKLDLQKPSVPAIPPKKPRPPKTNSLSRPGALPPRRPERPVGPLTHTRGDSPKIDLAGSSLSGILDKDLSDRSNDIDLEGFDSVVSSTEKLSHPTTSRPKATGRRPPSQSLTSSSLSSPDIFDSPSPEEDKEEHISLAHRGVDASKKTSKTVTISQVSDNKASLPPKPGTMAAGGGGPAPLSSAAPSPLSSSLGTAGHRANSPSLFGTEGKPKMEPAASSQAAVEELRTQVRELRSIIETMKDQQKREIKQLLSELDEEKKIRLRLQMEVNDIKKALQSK

These are yes or no findings as the source states them, for the method shown. Binding seen in cells or lysates may run through a third protein. Some binding calls cover weakened binding; strength is not graded here. For some assays here: Sequences can lack the tags named with a protein.

Test [1] addresses T1, Full-length GFP-tagged Dynamin-2 (UniProt P50570).
T1 sequence: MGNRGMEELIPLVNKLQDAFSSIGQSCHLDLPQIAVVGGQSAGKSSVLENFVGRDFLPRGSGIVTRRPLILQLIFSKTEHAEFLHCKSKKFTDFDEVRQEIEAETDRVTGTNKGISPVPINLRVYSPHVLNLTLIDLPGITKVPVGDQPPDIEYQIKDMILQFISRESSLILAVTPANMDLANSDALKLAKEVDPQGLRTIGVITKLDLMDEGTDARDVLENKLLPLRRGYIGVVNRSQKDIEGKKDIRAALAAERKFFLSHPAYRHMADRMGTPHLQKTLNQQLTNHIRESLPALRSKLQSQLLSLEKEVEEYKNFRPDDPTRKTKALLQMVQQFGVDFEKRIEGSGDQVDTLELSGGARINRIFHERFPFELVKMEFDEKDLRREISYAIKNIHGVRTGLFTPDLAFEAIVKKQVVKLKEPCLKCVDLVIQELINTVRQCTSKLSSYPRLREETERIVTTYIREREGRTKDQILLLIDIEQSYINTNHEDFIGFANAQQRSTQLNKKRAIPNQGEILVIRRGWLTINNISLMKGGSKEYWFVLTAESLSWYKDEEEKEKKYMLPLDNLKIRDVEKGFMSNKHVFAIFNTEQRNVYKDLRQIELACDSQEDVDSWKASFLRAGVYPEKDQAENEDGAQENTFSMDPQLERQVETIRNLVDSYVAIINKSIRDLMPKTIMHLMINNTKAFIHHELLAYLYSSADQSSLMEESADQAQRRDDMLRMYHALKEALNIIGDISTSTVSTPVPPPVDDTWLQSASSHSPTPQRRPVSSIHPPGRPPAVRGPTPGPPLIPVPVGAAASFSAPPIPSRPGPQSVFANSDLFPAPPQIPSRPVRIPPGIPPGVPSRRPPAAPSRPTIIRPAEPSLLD
Briefly: co-IP; GFP-DNM2 co-expressed with Flag-SH3KBP1 constructs in C2C12 cells; GFP-DNM2 immunoprecipitated from cell extracts with GFP-Trap; blots with anti-GFP, anti-Flag and anti-SH3KBP1.

The target of test [2] is GFP-tagged SH3KBP1 full length (human) (UniProt Q96B97). Briefly: co-IP; GFP-tagged SH3KBP1 constructs expressed in C2C12 cells; GFP trap assay on cell extracts; blots with anti-ERP72, anti-Calnexin (endogenous proteins) and anti-GFP.

For “FLAG-tagged SH3KBP1 full length (from UniProt Q96B97 1-665)”, in test [1], the binding result was “binds”.

B1: Calnexin (protein, UniProt P35564 21-591)
chain: HDGHDDDAIDIEDDLDDVIEEVEDSKSKSDASTPPSPKVTYKAPVPTGEVYFADSFDRGSLSGWILSKAKKDDTDDEIAKYDGKWEVDEMKETKLPGDKGLVLMSRAKHHAISAKLNKPFLFDTKPLIVQYEVNFQNGIECGGAYVKLLSKTAELSLDQFHDKTPYTIMFGPDKCGEDYKLHFIFRHKNPKTGVYEEKHAKRPDADLKTYFTDKKTHLYTLILNPDNSFEILVDQSVVNSGNLLNDMTPPVNPSREIEDPEDRKPEDWDERPKIADPDAVKPDDWDEDAPSKIPDEEATKPEGWLDDEPEYIPDPDAEKPEDWDEDMDGEWEAPQIANPKCESAPGCGVWQRPMIDNPNYKGKWKPPMIDNPNYQGIWKPRKIPNPDFFEDLEPFKMTPFSAIGLELWSMTSDIFFDNFIISGDRRVVDDWANDGWGLKKAADGAAEPGVVLQMLEAAEERPWLWVVYILTVALPVFLVILFCCSGKKQSNAMEYKKTDAPQPDVKDEEGKEEEKNKRDEEEEEEKLEEKQKSDAEEDGVTGSQDEEDSKPKAEEDEILNRSPRNRKPRRE
In the case of B1, the binding entry in test [2] was “binds”.
